Source: PubChem BioAssay AID1259308 (NCATS, 2017)

Screen: 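Candidate targets for better recombinant protein yield in mammalian cells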 (primary screen)
Cell system: human HEK293 embryonic kidney cells stably expressing firefly luciferase (HEK-CMV-Luc2-Hygro)
Reagents: single siRNA against human genes, 0.8 pmol siRNA per well
Timing: 72 h
Measured: 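Luciferase light (ONE-Glo) measured on one replicate plate set and viability (CellTiter-Glo) on the other, scaled to a negative control siRNA, with robust z-scores and luciferase per cell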
Scale: total luciferase, z-score and total luciferase, % of control: higher = more reporter protein produced; luciferase per cell, z-score: higher = more reporter output per viable cell; viable cells, % of control: higher = more viable cells
Active means: 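Active when the median/MAD z-score for overall luciferase is greater than 3; a gene was taken forward for validation with new siRNAs if at least two of its three siRNAs passed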
Meaning of the calls: active = raised luciferase; inactive = no rise
In all, the deposit lists about 59,000 reagents; below is an unselected part. About 1,510 of them (2.6%) count as active. 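Calls use total luciferase alone and ignore viability, so some active siRNAs may act by altering cell number.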 Unmarked entries are inactive. Reagents against one gene are numbered here.

| Target gene | reagent | total luciferase, z-score | total luciferase, % of control | luciferase per cell, z-score | viable cells, % of control |
| --- | --- | --- | --- | --- | --- |
| ENTREP1 | 1 | -0.709 | 67.8 | 0.0151 | 75.4 |
| ENTREP1 | 2 | 0.272 | 87.3 | 0.675 | 81.7 |
| ENTREP1 | 3 | 1.78 | 117 | 1.89 | 79.7 |
| RNASEH2B | 1 | -0.0181 | 81.5 | 0.528 | 79.3 |
| RNASEH2B | 2 | 0.601 | 93.8 | -0.157 | 109 |
| RNASEH2B | 3 | 0.208 | 86 | 0.204 | 91.1 |
| UTP4 | 1 | -2.08 | 40.6 | -1.93 | 75.4 |
| UTP4 | 2 | -1.3 | 56.1 | -0.997 | 81.5 |
| UTP4 | 3 | -1.63 | 49.5 | -0.263 | 59.3 |
| CSNK1G1 | 1 | 0.119 | 84.2 | 0.531 | 81.8 |
| CSNK1G1 | 2 | 0.0185 | 82.3 | 0.256 | 85.9 |
| CSNK1G1 | 3 | -0.114 | 79.6 | 0.619 | 75.6 |
| YPEL1 | 1 | -1.01 | 61.7 | -0.891 | 87.2 |
| YPEL1 | 2 | 2.84 | 138 | 2.37 | 82.7 |
| YPEL1 | 3 | -2.15 | 39.1 | -3.35 | 105 |

Entries listed so far whose gene name begins with Y or y (3):
| Target gene | reagent | total luciferase, z-score | total luciferase, % of control | luciferase per cell, z-score | viable cells, % of control |
| --- | --- | --- | --- | --- | --- |
| YPEL1 | 1 | -1.01 | 61.7 | -0.891 | 87.2 |
| YPEL1 | 2 | 2.84 | 138 | 2.37 | 82.7 |
| YPEL1 | 3 | -2.15 | 39.1 | -3.35 | 105 |

The results go on.
| Target gene | reagent | total luciferase, z-score | total luciferase, % of control | luciferase per cell, z-score | viable cells, % of control |
| --- | --- | --- | --- | --- | --- |
| AGL | 1 | -0.987 | 62.3 | -1.02 | 91 |
| AGL | 2 | -0.409 | 73.8 | -0.775 | 101 |
| AGL | 3 | 0.209 | 86 | 0.545 | 83.3 |
| HDLBP | 1 | -0.0401 | 81.1 | 0.179 | 86.4 |
| HDLBP | 2 | -0.341 | 75.1 | -1.06 | 111 |
| HDLBP | 3 | -1.15 | 59 | -1.07 | 87.3 |
| PDK1 | 1 | -0.145 | 79 | -0.0891 | 90.4 |
| PDK1 | 2 | -0.156 | 78.8 | -1.08 | 117 |
| PDK1 | 3 | -0.378 | 74.4 | -0.531 | 95.6 |
